PubChem BioAssay AID248 (DTP/NCI, 2004)
The list is a part of this screen's results and no random one: it is rich in T/C values a quarter to a half above the control, in often repeated tests (any T/C) and in doses without a T/C. Other doses and runs of a compound stand elsewhere. T/C gives the treated animals as a percentage of the vehicle group. Some entries give survivors of the animals treated and no T/C: the source files T/C as zero there, which appears to mark a toxic dose or a test without result, not a measured value. Some survivor counts are full or nearly so, which does not show that the dose was tolerated: survival well below the control is almost never listed, so the zero probably covers shortened survival too. Counts of survivors are from the toxicity check (mostly the fifth day) where no day follows; animals may have died later. Schedules are NCI's codes, read here as Q, the interval in days (D) or hours (H), X, the number of doses. Some schedules carry Z or #; the key to these is not given. Where survival is the endpoint, the PubChem record calls one and a half times the control and up active, and a quarter to a half above the control has no call in these data; cut-offs in other NCI protocols can differ. Some entries were tested several times; their values stand side by side, smallest first. Marks such as (2×) stand for listed records that agree. Some T/C values carry the count of animals alive at the toxicity check (mostly the fifth day); without a count, all were alive then.

System: L1210 leukemia ip in BDF1 mice, survival T/C
Assay: NCI In Vivo Anticancer Drug Screen. Data for tumor model L1210 Leukemia (intraperitoneal) in B6D2F1 (BDF1) mice
Settings: T/C endpoint: mean survival time, higher T/C = longer survival
[1] = dose: 0.25 mg/kg/injection, schedule: Q#A X Z (ip), vehicle: saline
[2] = dose: 0.5 mg/kg/injection, schedule: Q#A X Z (ip), vehicle: saline
[3] = dose: 2.0 mg/kg/injection, schedule: Q01DX Z (ip), vehicle: saline

For `Nc1nc(=S)c2[nH]cnc2[nH]1`, the T/C (dose: 0.06 mg/kg/injection, schedule: Q01DX Z (ip), vehicle: carboxymethylcellulose (CMC)) was 125 % of control, the T/C (dose: 0.09 mg/kg/injection, schedule: Q01DX Z (ip), vehicle: carboxymethylcellulose (CMC)) was 131 % of control and the T/C (dose: 0.12 mg/kg/injection, schedule: Q01DX009 (ip), vehicle: alkali diluted with saline) was 131 % of control. The T/C (dose: 0.12 mg/kg/injection, schedule: Q#A X Z (ip), vehicle: saline) was 125 % of control, the T/C (dose: 0.14 mg/kg/injection, schedule: Q01DX Z (ip), vehicle: carboxymethylcellulose (CMC)) was 125 % of control and the T/C (dose: 0.16 mg/kg/injection, schedule: Q03HX024 (ip), vehicle: alkali diluted with saline, evaluated on day 5) was 125 % of control. For the same compound, the T/C (dose: 0.16 mg/kg/injection, schedule: Q03HX024 (ip), vehicle: alkali diluted with saline, evaluated on day 60) was 125 % of control, the T/C (dose: 0.22 mg/kg/injection, schedule: Q01DX Z (ip), vehicle: carboxymethylcellulose (CMC)) was 142 % of control and the T/C (dose: 0.23 mg/kg/injection, schedule: Q01DX009 (ip), vehicle: alkali diluted with saline) was 125 and 134 % of control. For the same compound, the T/C (dose: 0.24 mg/kg/injection, schedule: Q03HX024 (ip), vehicle: alkali diluted with saline, evaluated on day 5) was 127 % of control, the T/C (dose: 0.24 mg/kg/injection, schedule: Q03HX024 (ip), vehicle: alkali diluted with saline, evaluated on day 60) was 127 % of control and the T/C (dose: 0.24 mg/kg/injection, schedule: Q03HX032 (ip), vehicle: alkali diluted with saline) was 134 % of control. The T/C (dose: 0.25 mg/kg/injection, schedule: Q01DX Z (ip), vehicle: saline) was 130 % of control, the T/C [1] was 133 % of control and the survivor count [1] was 6 of 6. For the same compound, the T/C (dose: 0.33 mg/kg/injection, schedule: Q01DX015 (ip), vehicle: alkali diluted with saline, evaluated on day 5) was 132 % of control, the T/C (dose: 0.33 mg/kg/injection, schedule: Q01DX015 (ip), vehicle: alkali diluted with saline, evaluated on day 45) was 130 % of control and the T/C (dose: 0.36 mg/kg/injection, schedule: Q03HX024 (ip), vehicle: alkali diluted with saline, evaluated on day 5) was 137 % of control. For the same compound, the T/C (dose: 0.36 mg/kg/injection, schedule: Q03HX024 (ip), vehicle: alkali diluted with saline, evaluated on day 60) was 137 % of control, the T/C (dose: 0.39 mg/kg/injection, schedule: Q03HX008 (ip), vehicle: alkali diluted with saline) was 139 % of control and the T/C (dose: 0.4 mg/kg/injection, schedule: Q01DX015 (ip), vehicle: alkali diluted with saline) was 145 % of control. For the same compound, the T/C (dose: 0.44 mg/kg/injection, schedule: Q01DX015 (ip), vehicle: alkali diluted with saline, evaluated on day 5) was 134, 140, 152, 160, 181 % of control, the T/C (dose: 0.44 mg/kg/injection, schedule: Q01DX015 (ip), vehicle: alkali diluted with saline, evaluated on day 45) was 128, 135, 181 % of control and the T/C (dose: 0.44 mg/kg/injection, schedule: Q## X015 (ip), vehicle: alkali diluted with saline) was 134 % of control. The T/C (dose: 0.45 mg/kg/injection, schedule: Q01DX009 (ip), vehicle: alkali diluted with saline) was 121, 136, 137, 140 % of control, the T/C (dose: 0.5 mg/kg/injection, schedule: Q01DX Z (ip), vehicle: saline) was 142, 143, 158, 170 % of control and the T/C (dose: 0.5 mg/kg/injection, schedule: Q01DX Z (sc), vehicle: saline) was 127 and 138 % of control. The T/C [2] was 137 % of control, the survivor count [2] was 3 of 6 and the T/C (dose: 0.54 mg/kg/injection, schedule: Q03HX024 (ip), vehicle: alkali diluted with saline, evaluated on day 5) was 138 % of control. For the same compound, the T/C (dose: 0.54 mg/kg/injection, schedule: Q03HX024 (ip), vehicle: alkali diluted with saline, evaluated on day 60) was 138 % of control [9 of 10 alive], the T/C (dose: 0.6 mg/kg/injection, schedule: Q01DX015 (ip), vehicle: alkali diluted with saline) was 147 % of control and the T/C (dose: 0.67 mg/kg/injection, schedule: Q01DX015 (ip), vehicle: alkali diluted with saline, evaluated on day 5) was 157, 163, 183 (2×), 187 % of control. The T/C (dose: 0.67 mg/kg/injection, schedule: Q01DX015 (ip), vehicle: alkali diluted with saline, evaluated on day 45) was 120, 176, 187 % of control, the T/C (dose: 0.74 mg/kg/injection, schedule: Q01DX013 (ip), vehicle: saline) was 140 % of control and the T/C (dose: 0.81 mg/kg/injection, schedule: Q03HX024 (ip), vehicle: alkali diluted with saline, evaluated on day 5) was 137 % of control. For the same compound, the T/C (dose: 0.81 mg/kg/injection, schedule: Q03HX024 (ip), vehicle: alkali diluted with saline, evaluated on day 60) was 137 % of control, the T/C (dose: 0.83 mg/kg/injection, schedule: Q01DX015 (ip), vehicle: alkali diluted with saline) was 142 % of control and the T/C (dose: 0.88 mg/kg/injection, schedule: Q07DX003 (ip), vehicle: saline) was 129 and 139 % of control. The T/C (dose: 0.9 mg/kg/injection, schedule: Q01DX009 (ip), vehicle: alkali diluted with saline) was 148, 160, 163, 182 % of control, the T/C (dose: 1.0 mg/kg/injection, schedule: Q01DX015 (ip), vehicle: alkali diluted with saline, evaluated on day 5) was 162, 168, 171, 178, 198 % of control and the T/C (dose: 1.0 mg/kg/injection, schedule: Q01DX015 (ip), vehicle: alkali diluted with saline, evaluated on day 45) was 174, 198, 202 % of control. The T/C (dose: 1.0 mg/kg/injection, schedule: Q01DX Z (im), vehicle: saline) was 133 % of control, the T/C (dose: 1.0 mg/kg/injection, schedule: Q01DX Z (ip), vehicle: saline) was 91 [5 of 6 alive], 137, 138, 158 % of control and the T/C (dose: 1.0 mg/kg/injection, schedule: Q01DX Z (sc), vehicle: saline) was 133 and 140 % of control. For the same compound, the survivor count (dose: 1.0 mg/kg/injection, schedule: Q#A X Z (ip), vehicle: saline) was 3 of 6, the T/C (dose: 1.2 mg/kg/injection, schedule: Q01DX009 (ip), vehicle: alkali diluted with saline) was 148 % of control and the T/C (dose: 1.25 mg/kg/injection, schedule: Q01DX010 (ip), vehicle: other) was 139 % of control. The T/C (dose: 1.35 mg/kg/injection, schedule: Q03HX032 (ip), vehicle: alkali diluted with saline, evaluated on day 5) was 137 % of control, the T/C (dose: 1.35 mg/kg/injection, schedule: Q03HX032 (ip), vehicle: alkali diluted with saline, evaluated on day 45) was 137 % of control and the T/C (dose: 1.47 mg/kg/injection, schedule: Q01DX009 (ip), vehicle: alkali diluted with saline) was 145 % of control. The T/C (dose: 1.47 mg/kg/injection, schedule: Q01DX Z (ip), vehicle: carboxymethylcellulose (CMC)) was 139 % of control, the T/C (dose: 1.5 mg/kg/injection, schedule: Q01DX015 (ip), vehicle: alkali diluted with saline, evaluated on day 5) was 155, 159, 160, 169, 173 % of control and the T/C (dose: 1.5 mg/kg/injection, schedule: Q01DX015 (ip), vehicle: alkali diluted with saline, evaluated on day 45) was 173, 185, 196 % of control. The T/C (dose: 1.5 mg/kg/injection, schedule: Q03DX006 (ip), vehicle: saline) was 137 % of control, the T/C (dose: 1.5 mg/kg/injection, schedule: Q04DX012 (ip), vehicle: alkali diluted with saline) was 135 % of control and the T/C (dose: 1.6 mg/kg/injection, schedule: Q01DX Z (ip), vehicle: carboxymethylcellulose (CMC)) was 147 % of control. For the same compound, the T/C (dose: 1.8 mg/kg/injection, schedule: Q01DX009 (ip), vehicle: alkali diluted with saline, evaluated on day 30) was 170, 199, 228, 267 % of control, the T/C (dose: 1.8 mg/kg/injection, schedule: Q01DX009 (ip), vehicle: alkali diluted with saline, evaluated on day 45) was 148 and 161 % of control and the T/C (dose: 1.8 mg/kg/injection, schedule: Q04DX002 (ip), vehicle: alkali diluted with saline) was 143 % of control. For the same compound, the T/C (dose: 1.96 mg/kg/injection, schedule: Q01DX Z (ip), vehicle: carboxymethylcellulose (CMC)) was 147 % of control, the T/C (dose: 2.0 mg/kg/injection, schedule: Q01DX006 (iv), vehicle: saline) was 145 % of control and the T/C (dose: 2.0 mg/kg/injection, schedule: Q01DX Z (im), vehicle: saline) was 137 % of control. For the same compound, the T/C (dose: 2.0 mg/kg/injection, schedule: Q01DX Z (ip), vehicle: carboxymethylcellulose (CMC)) was 131 and 146 % of control, the T/C [3] was 142 % of control and the survivor count [3] was 5 of 6. For the same compound, the T/C (dose: 2.0 mg/kg/injection, schedule: Q01DX Z (oral), vehicle: saline) was 133 and 148 % of control, the T/C (dose: 2.0 mg/kg/injection, schedule: Q01DX Z (sc), vehicle: saline) was 135 % of control and the survivor count (dose: 2.0 mg/kg/injection, schedule: Q#A X Z (ip), vehicle: saline) was 2 of 6. The T/C (dose: 2.1 mg/kg/injection, schedule: Q03HX024 (ip), vehicle: alkali diluted with saline) was 145 % of control, the T/C (dose: 2.2 mg/kg/injection, schedule: Q01DX009 (ip), vehicle: alkali diluted with saline) was 142 % of control and the T/C (dose: 2.25 mg/kg/injection, schedule: Q01DX015 (ip), vehicle: alkali diluted with saline, evaluated on day 5) was 129, 159, 169 % of control. The T/C (dose: 2.25 mg/kg/injection, schedule: Q01DX015 (ip), vehicle: alkali diluted with saline, evaluated on day 45) was 169 % of control, the T/C (dose: 2.25 mg/kg/injection, schedule: Q## X015 (ip), vehicle: alkali diluted with saline) was 129 % of control and the T/C (dose: 2.3 mg/kg/injection, schedule: Q04DX012 (ip), vehicle: alkali diluted with saline) was 140 % of control. For the same compound, the T/C (dose: 2.3 mg/kg/injection, schedule: Q07DX012 (ip), vehicle: alkali diluted with saline) was 145 % of control, the T/C (dose: 2.45 mg/kg/injection, schedule: Q01DX Z (ip), vehicle: carboxymethylcellulose (CMC)) was 130 % of control and the T/C (dose: 2.5 mg/kg/injection, schedule: Q01DX010 (ip), vehicle: other) was 141 % of control. The T/C (dose: 2.5 mg/kg/injection, schedule: Q01DX Z (ip), vehicle: carboxymethylcellulose (CMC)) was 132 % of control, the T/C (dose: 3.5 mg/kg/injection, schedule: Q01DX001 (ip), vehicle: saline) was 148 % of control and the T/C (dose: 3.5 mg/kg/injection, schedule: Q04DX002 (ip), vehicle: alkali diluted with saline) was 147 % of control. The T/C (dose: 3.5 mg/kg/injection, schedule: Q04DX012 (ip), vehicle: alkali diluted with saline) was 137 % of control and the T/C (dose: 3.5 mg/kg/injection, schedule: Q07DX008 (ip), vehicle: alkali diluted with saline) was 146 % of control.
